# Measurements reported in PMC7819943, “Rice protein-binding microarrays: a tool to detect cis-acting elements near promoter regions in rice”.
# This is one part of the list.
# Target: T1, OsSMF1 (Oryza sativa, UniProt Q6ZLB0 1-436)
# T1 sequence: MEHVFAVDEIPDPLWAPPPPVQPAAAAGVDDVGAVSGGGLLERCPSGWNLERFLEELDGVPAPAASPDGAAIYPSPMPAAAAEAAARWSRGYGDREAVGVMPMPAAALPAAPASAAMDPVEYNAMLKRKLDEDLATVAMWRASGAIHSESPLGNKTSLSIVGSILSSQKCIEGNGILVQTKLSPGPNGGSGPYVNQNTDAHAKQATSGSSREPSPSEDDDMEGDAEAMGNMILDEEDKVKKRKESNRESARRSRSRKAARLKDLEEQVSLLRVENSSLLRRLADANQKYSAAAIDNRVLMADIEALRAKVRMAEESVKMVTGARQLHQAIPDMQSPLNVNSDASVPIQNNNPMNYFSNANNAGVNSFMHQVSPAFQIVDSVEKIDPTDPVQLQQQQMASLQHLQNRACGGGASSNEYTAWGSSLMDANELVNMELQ
# Assay: protein-binding microarray (RPBM); PBS, 2% BSA, 51.3 ng/ul salmon testes DNA, 50 uM zinc acetate, 200 nM TF, 25 C, 1 h; high values mean tight binding
# Settings: protein: recombinant; tags: N-terminal polyhistidine and DsRed monomer fusion (pET32a); chain copies: 2; label: CyDye5-dUTP incorporated in the synthesized complementary strand; 3' TTTTT single-stranded linker to array surface; dsDNA, one strand shown
# Method in brief: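 Per-feature fluorescence intensity (arbitrary units), read on an Axon 4000B scanner, is the binding signal. Transcription factors carrying an N-terminal polyhistidine tag and DsRed fusion were expressed in E. coli BL21-CodonPlus and purified on Ni–NTA. A custom Agilent array, made double-stranded by primer extension with Cy5-dUTP and blocked with 2% BSA, was incubated with 200 nM protein in PBS, 2% BSA, salmon testes DNA and 50 µM zinc acetate at 25 °C for 1 h and then washed.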
row,Sequence,binding signal
1,TATGGGGCCGTGATATTCAATGTGATGTGCATACAGCATGCGGAGTCACCTAGTGCAG,3720 fluorescence intensity (a.u.)
2,TGCTCAGGGTTTCGTCAGTGCCGTTCGGGACGTGGAATGGCGGAGTCACCTAGTGCAG,4270 fluorescence intensity (a.u.)
3,GACCATTTCGTGCGTCGATTTGACATGCCTTTGTTGCTGTCGGAGTCACCTAGTGCAG,3220 fluorescence intensity (a.u.)
4,TAGGAAAAGCAAAACATGGAGTGACGTGCTGGATTCTTGTCGGAGTCACCTAGTGCAG,5350 fluorescence intensity (a.u.)
5,TTTCTTCCCCGCGCGGCAATTCCTGGCCAACACCACCGCCCGGAGTCACCTAGTGCAG,3300 fluorescence intensity (a.u.)
6,ACCTCAAATTGCAGTACGGATTGGGTACTAGTCATCAACACGGAGTCACCTAGTGCAG,3180 fluorescence intensity (a.u.)
7,CCCGCCGCAACAGTAAGCACGTCAGCGTGTCACGCGCCCACGGAGTCACCTAGTGCAG,14100 fluorescence intensity (a.u.)
8,ACAGTATAAGCTATTGTTAGCTACTTGGCTTTGACAATTGCGGAGTCACCTAGTGCAG,3280 fluorescence intensity (a.u.)
9,CACGCCGTGCCTTCCCGATCTCCTCCACGTTCTCTCCCATCGGAGTCACCTAGTGCAG,3860 fluorescence intensity (a.u.)
10,TCCGTCACCAACGTCAGCTGCGACGTCACGCCGCCGACGTCGGAGTCACCTAGTGCAG,13500 fluorescence intensity (a.u.)
11,CTGCAAGAGATACACCTATGTTAGCCACGTCTTTTCTGTTCGGAGTCACCTAGTGCAG,6880 fluorescence intensity (a.u.)
12,AGAGGACATCCCTTAAAGGATGAATGGATGAATAGAGTTTCGGAGTCACCTAGTGCAG,24900 fluorescence intensity (a.u.)
13,TACCTTCTGACGTTATCTTCTGCTTTGATTTTACGTCACACGGAGTCACCTAGTGCAG,4750 fluorescence intensity (a.u.)
14,GGTGGGGACCACCAGGACGGACGTGTAGGGCCTCCTGAAGCGGAGTCACCTAGTGCAG,4270 fluorescence intensity (a.u.)
15,CTTGAAGGAAAACAAGTATAAGGTTCATCCTCATCATCACCGGAGTCACCTAGTGCAG,3270 fluorescence intensity (a.u.)
16,GTCATTTCCAGAACTAGTCATGTCCTTCGATCTGCTTGTTCGGAGTCACCTAGTGCAG,3560 fluorescence intensity (a.u.)
17,CCCACGGTTTCCACGTCGCGTGTGCATCTGCAACTCATCTCGGAGTCACCTAGTGCAG,7080 fluorescence intensity (a.u.)
18,TACCCCGCCGCCGCGTCCTAGATTGCCGCCGTTCCCTAAACGGAGTCACCTAGTGCAG,3180 fluorescence intensity (a.u.)
19,CAACTAAGTAAGATTCTGAGACAATTTTATTGTTTATGCTCGGAGTCACCTAGTGCAG,3140 fluorescence intensity (a.u.)
20,CGTCCGGGACGATGTCCACGGGTTCATCGATCCATCCGTCCGGAGTCACCTAGTGCAG,3300 fluorescence intensity (a.u.)
21,GGAGGATCGTGTTCTGGAACACGTGCACGTTGATCTCGTTCGGAGTCACCTAGTGCAG,3980 fluorescence intensity (a.u.)
22,AGAGCAGGTCGCCGGAACCTCTGCCTTCGACGTCCTGCACCGGAGTCACCTAGTGCAG,25700 fluorescence intensity (a.u.)
23,GCCAGTACGTCATCCGCCAACTCATCCAAATTTGTGTTTACGGAGTCACCTAGTGCAG,5180 fluorescence intensity (a.u.)
24,GTGGCTACAAAAGCATGTCCACGTAGGACAGGTGGGCCCCCGGAGTCACCTAGTGCAG,18400 fluorescence intensity (a.u.)
25,TATGAAAGTTTTCGATGTGATGTAATGTGATGGAAAGTTACGGAGTCACCTAGTGCAG,3140 fluorescence intensity (a.u.)
26,GATGTCGTATTACGTAGATCCTCGTACCAGCGTACTCCAACGGAGTCACCTAGTGCAG,4200 fluorescence intensity (a.u.)
27,CTCCCTAGCTAGCCGCTCCTTCTCCTCTGTCGCCGGCGGCCGGAGTCACCTAGTGCAG,3220 fluorescence intensity (a.u.)

row,Sequence,binding signal
1,TCATTGTCCATGTCATGGCCGGCGTCCTCATGGATGCAGACGGAGTCACCTAGTGCAG,4820 fluorescence intensity (a.u.)
2,CGGGCTAGGATTTGCGTGGGCTGGGCCGGATCTGCTCGCGCGGAGTCACCTAGTGCAG,3300 fluorescence intensity (a.u.)
3,GTCTTCTGAATTTTGACGCACAAATAATTGTGTCAACATACGGAGTCACCTAGTGCAG,17000 fluorescence intensity (a.u.)
4,AGTCGTGTGCTTAGGGAAACGGTGACGACATAAAAGCGACCGGAGTCACCTAGTGCAG,3530 fluorescence intensity (a.u.)
5,GGGACCCACCCGCGCGTGGGGCCCACGCGTCAGCCTCGCTCGGAGTCACCTAGTGCAG,20700 fluorescence intensity (a.u.)
6,TCATGCGGTTCGTGTTCGGCAAGGAGTACGACGTGTCGCGCGGAGTCACCTAGTGCAG,5800 fluorescence intensity (a.u.)
7,ACTGTAGTAGTAGTAGATTCGCTTGCCGTCACTCTCGTCCCGGAGTCACCTAGTGCAG,3170 fluorescence intensity (a.u.)
8,GATCCTGATAGGACTGCGCATGTGCTTGTGGGACACGTCGCGGAGTCACCTAGTGCAG,3170 fluorescence intensity (a.u.)
9,TTCTAAGAATCTAGTAAAACTGGGTTTCTCAGCTTCTGGCCGGAGTCACCTAGTGCAG,26000 fluorescence intensity (a.u.)
10,AATAAGAGGGAAGAGATGAGGTGGCACCCTGATATGTGGGCGGAGTCACCTAGTGCAG,11900 fluorescence intensity (a.u.)
11,GGCACCTCGCCGCCGGGCGCGGTGGTCTACCCGCCGCATCCGGAGTCACCTAGTGCAG,3400 fluorescence intensity (a.u.)
12,GGGGCGGGGCGGCCGTGCTTACACATGTTGGCAACGCACGCGGAGTCACCTAGTGCAG,4390 fluorescence intensity (a.u.)
13,GTCACTGGCTTTGTTCCCGTTCTATATATGTCATTGAGTTCGGAGTCACCTAGTGCAG,4290 fluorescence intensity (a.u.)
14,CTCTCGCTCCGATCGTCCGCGCCACGGCGGCGACACGATGCGGAGTCACCTAGTGCAG,6580 fluorescence intensity (a.u.)
15,ACGATCCCCGAGCCTCTCTCGCGCGCGTCCCGTCACGTCTCGGAGTCACCTAGTGCAG,3800 fluorescence intensity (a.u.)
16,ATTAAGCACTACGTCAGATATGATTGGCCATCATTGCATTCGGAGTCACCTAGTGCAG,3150 fluorescence intensity (a.u.)
17,CCAGTGACGGGAAACGCCACCTCCGCGCCACGCCTCATCGCGGAGTCACCTAGTGCAG,4240 fluorescence intensity (a.u.)
18,GCGCGCAAGGCGGCGTCGCTGACAGGGCCGACGCTTTCCCCGGAGTCACCTAGTGCAG,4420 fluorescence intensity (a.u.)
19,ATTCGTAGTACTATGATGTGTCACATTCAATTTTAGATTGCGGAGTCACCTAGTGCAG,5750 fluorescence intensity (a.u.)
20,ATATTTGAACCGGTACAAAACCGTCGAACCAGCAGGTTTTCGGAGTCACCTAGTGCAG,24700 fluorescence intensity (a.u.)
21,TGCAGGAACGAAATCAAACTTGTTTTCAAGTTAAGGATCTCGGAGTCACCTAGTGCAG,30800 fluorescence intensity (a.u.)
22,GATTGGCTTGGGTTTGACAGGTTAATAAGCCACGTCAGTTCGGAGTCACCTAGTGCAG,9760 fluorescence intensity (a.u.)
23,CCACTACATTTGAACCGGAATGTACGTGGCCAAAGGATTTCGGAGTCACCTAGTGCAG,4680 fluorescence intensity (a.u.)
24,TGACTTTATGAATCCAACATTGAGCAATGCTACAGCTCCACGGAGTCACCTAGTGCAG,3280 fluorescence intensity (a.u.)
25,AAAACAAACCCATTTGATATATTTCCAATTTGTATATTTCCGGAGTCACCTAGTGCAG,3830 fluorescence intensity (a.u.)
26,TAGAAAGTATAGATAAATATTCTTCATGCCACATAATTGGCGGAGTCACCTAGTGCAG,3420 fluorescence intensity (a.u.)
27,ATATCCACCCCTAGTTCCAACTTATTAGTCATTTACAAGTCGGAGTCACCTAGTGCAG,4040 fluorescence intensity (a.u.)

# A second format for part of the listing above.
row	Sequence	binding signal
5	GGGACCCACCCGCGCGTGGGGCCCACGCGTCAGCCTCGCTCGGAGTCACCTAGTGCAG	20700 fluorescence intensity (a.u.)
6	TCATGCGGTTCGTGTTCGGCAAGGAGTACGACGTGTCGCGCGGAGTCACCTAGTGCAG	5800 fluorescence intensity (a.u.)
7	ACTGTAGTAGTAGTAGATTCGCTTGCCGTCACTCTCGTCCCGGAGTCACCTAGTGCAG	3170 fluorescence intensity (a.u.)
8	GATCCTGATAGGACTGCGCATGTGCTTGTGGGACACGTCGCGGAGTCACCTAGTGCAG	3170 fluorescence intensity (a.u.)
9	TTCTAAGAATCTAGTAAAACTGGGTTTCTCAGCTTCTGGCCGGAGTCACCTAGTGCAG	26000 fluorescence intensity (a.u.)
10	AATAAGAGGGAAGAGATGAGGTGGCACCCTGATATGTGGGCGGAGTCACCTAGTGCAG	11900 fluorescence intensity (a.u.)
11	GGCACCTCGCCGCCGGGCGCGGTGGTCTACCCGCCGCATCCGGAGTCACCTAGTGCAG	3400 fluorescence intensity (a.u.)
12	GGGGCGGGGCGGCCGTGCTTACACATGTTGGCAACGCACGCGGAGTCACCTAGTGCAG	4390 fluorescence intensity (a.u.)
13	GTCACTGGCTTTGTTCCCGTTCTATATATGTCATTGAGTTCGGAGTCACCTAGTGCAG	4290 fluorescence intensity (a.u.)
14	CTCTCGCTCCGATCGTCCGCGCCACGGCGGCGACACGATGCGGAGTCACCTAGTGCAG	6580 fluorescence intensity (a.u.)
15	ACGATCCCCGAGCCTCTCTCGCGCGCGTCCCGTCACGTCTCGGAGTCACCTAGTGCAG	3800 fluorescence intensity (a.u.)
